Experimental data published in PMC3499479.
Results are given in words; binding and its absence hold for the method and conditions named. Some binding calls cover weakened binding; strength is not graded here.

Assays:
Test in all cases: two-hybrid; FBX fused to Gal4-DB, ASK fused to Gal4-AD; yeast mating; selection on SD without Leu, Trp, His, Ade (high strength) or without Leu, Trp, His (low strength); every combination examined twice
[1] = biological target: T1, F-box (FBX) protein At1g31080 (Arabidopsis thaliana) (UniProt Q9SA02)
T1 sequence: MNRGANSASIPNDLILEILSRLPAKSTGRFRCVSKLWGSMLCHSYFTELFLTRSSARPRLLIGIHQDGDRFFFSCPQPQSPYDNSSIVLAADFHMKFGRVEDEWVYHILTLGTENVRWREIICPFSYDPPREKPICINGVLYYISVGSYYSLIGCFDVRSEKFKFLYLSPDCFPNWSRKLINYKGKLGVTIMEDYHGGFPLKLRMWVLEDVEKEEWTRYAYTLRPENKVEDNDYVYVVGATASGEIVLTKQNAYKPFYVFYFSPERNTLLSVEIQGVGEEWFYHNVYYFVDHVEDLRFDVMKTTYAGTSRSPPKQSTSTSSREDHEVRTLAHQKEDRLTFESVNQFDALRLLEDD

[2] = biological target: T2, F-box (FBX) protein At1g30790 (Arabidopsis thaliana) (UniProt Q9SY20)
T2 sequence: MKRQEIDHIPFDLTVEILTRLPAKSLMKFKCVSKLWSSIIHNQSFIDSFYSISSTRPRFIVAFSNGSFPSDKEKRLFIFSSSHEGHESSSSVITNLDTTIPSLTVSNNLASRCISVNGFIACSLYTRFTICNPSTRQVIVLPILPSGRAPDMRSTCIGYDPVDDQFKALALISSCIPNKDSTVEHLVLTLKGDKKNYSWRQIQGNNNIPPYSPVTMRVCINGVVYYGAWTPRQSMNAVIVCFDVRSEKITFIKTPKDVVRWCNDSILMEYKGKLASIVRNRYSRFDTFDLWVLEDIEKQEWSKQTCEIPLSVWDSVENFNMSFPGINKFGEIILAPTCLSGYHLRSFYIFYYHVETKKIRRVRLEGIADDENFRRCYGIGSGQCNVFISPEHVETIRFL

[3] = biological target: T3, F-box (FBX) protein At5g21040 (Arabidopsis thaliana) (UniProt Q94AD8)
T3 sequence: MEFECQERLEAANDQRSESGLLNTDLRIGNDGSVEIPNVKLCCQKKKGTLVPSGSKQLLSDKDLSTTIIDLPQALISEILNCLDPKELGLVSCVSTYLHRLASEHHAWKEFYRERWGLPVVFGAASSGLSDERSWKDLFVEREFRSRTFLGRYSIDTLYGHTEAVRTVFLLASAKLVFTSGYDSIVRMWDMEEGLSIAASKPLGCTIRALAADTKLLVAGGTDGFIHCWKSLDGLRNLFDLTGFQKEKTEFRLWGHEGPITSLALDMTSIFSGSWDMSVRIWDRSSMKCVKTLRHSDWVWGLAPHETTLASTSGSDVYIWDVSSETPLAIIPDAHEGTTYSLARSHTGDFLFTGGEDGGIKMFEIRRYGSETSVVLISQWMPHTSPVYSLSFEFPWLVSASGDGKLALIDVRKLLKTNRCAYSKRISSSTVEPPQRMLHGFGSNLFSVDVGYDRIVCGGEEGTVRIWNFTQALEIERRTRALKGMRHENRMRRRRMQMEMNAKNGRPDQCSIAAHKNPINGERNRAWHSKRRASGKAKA

[4] = biological target: T4, F-box (FBX) protein At3g04660 (Arabidopsis thaliana) (UniProt Q9SR08)
T4 sequence: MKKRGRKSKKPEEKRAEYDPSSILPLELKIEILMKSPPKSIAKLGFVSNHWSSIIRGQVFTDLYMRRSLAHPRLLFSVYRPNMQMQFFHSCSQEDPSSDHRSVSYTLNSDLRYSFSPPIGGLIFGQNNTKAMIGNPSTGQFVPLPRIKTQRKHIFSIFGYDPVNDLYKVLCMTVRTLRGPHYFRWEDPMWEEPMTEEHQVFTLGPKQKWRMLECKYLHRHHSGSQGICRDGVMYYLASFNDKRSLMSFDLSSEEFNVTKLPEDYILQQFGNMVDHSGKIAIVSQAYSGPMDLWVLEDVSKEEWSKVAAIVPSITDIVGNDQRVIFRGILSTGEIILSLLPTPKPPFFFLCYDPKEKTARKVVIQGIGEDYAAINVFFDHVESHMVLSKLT

[5] = biological target: T5, F-box (FBX) protein At3g03360 (Arabidopsis thaliana) (UniProt Q84W80)
T5 sequence: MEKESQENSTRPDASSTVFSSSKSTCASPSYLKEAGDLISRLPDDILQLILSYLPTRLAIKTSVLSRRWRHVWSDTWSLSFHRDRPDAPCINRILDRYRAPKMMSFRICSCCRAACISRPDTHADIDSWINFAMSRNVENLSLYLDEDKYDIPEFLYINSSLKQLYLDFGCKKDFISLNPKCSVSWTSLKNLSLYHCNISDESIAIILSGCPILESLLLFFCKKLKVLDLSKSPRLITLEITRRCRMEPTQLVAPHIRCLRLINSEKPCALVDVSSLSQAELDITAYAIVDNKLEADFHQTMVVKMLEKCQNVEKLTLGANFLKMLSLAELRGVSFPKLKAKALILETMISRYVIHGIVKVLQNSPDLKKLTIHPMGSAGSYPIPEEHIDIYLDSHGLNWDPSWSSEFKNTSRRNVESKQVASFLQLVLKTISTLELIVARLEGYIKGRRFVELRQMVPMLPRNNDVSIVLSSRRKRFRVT

Measured: binding

B1: Arabidopsis SKP1-LIKE 14 (ASK14) (protein, UniProt O81057 1-149)
chain: MSSNKIVLSSSDGESFEVEEAVARKLKIVEHMIEDDCVVTEVPLQNVTGKILSIVVEYCKKHVVDEESDEFKTWDEEFMKKFDQPTVFQLLLAANYLNIKGLLDLSAQTVADRIKDKTPEEIREIFNIENDFTPEEEAAVRKENAWAFE
binds: [1] | [2] | [3] | [4] | [5]
